From EP4775225 (dated 2025)

Assay: general procedure: solution-phase peptide synthesis; HATU/DIEA
Settings: conjugation step
In the case of “N-((3R,4R,7S,22S)-7,22-dibenzyl-3-(S)-1-((3R,4S,5S)-4-(S) pyrrolidin-2-yl)-4-methyl-5,8,18,21,24,27-hexaoxo-2,15-dioxo-6,9,17,20,23,26-hexaazaoctacosan-28-yl)-6-(2,5-dioxo-2,5-dihydro-1H-pyrrol-1-yl)hexanamide”, the conjugation yield is reported as 14.0%. Work on “(9H-fluoren-9-yl) methyl ((3R,4R,7R)-7-benzyl-3-((S)-1-((3R,4S,5S)-4-((S)-2-((S)-2-(dimethylamino)-3-methylbutanamido)-N,3-dimethylbutanamido)-3-methoxy-5-methylheptanoyl) pyrrolidin-2-yl)-4,10,10-trimethyl-5,8,16-trioxo-2,13-dioxo-6,9,15-triazaheptadecan-17-yl) carbamate” yielded a conjugation yield of 36.5%. In the case of “(9H-fluoren-9-yl) methyl (((3R,4R,7R)-7-benzyl-3-(((S)-1-(3-methylbutanamido)-N,3-dimethylbutanamido)-3-methoxy-5-methylheptanoyl) pyrrolidin-2-yl)-4,9-dimethyl-5,8,18-trioxo-2,12,15-trioxo-6,9,17-triazapentadecan-19-yl) carbamate”, the conjugation yield is reported as 71.0%. With “(9H-fluoren-9-yl) methyl ((3R,4R,7S,10R)-7-benzyl-3-((S)-1-((3R,4S,5S)-4-((S)-2-((S)-2-(dimethylamino)-3-methylbutanamido)-N,3-dimethylbutanamido)-3-methoxy-5-methylheptanoyl) pyrrolidin-2-yl)-4-methyl-5,8,16-trioxo-10-phenyl-2,13-dioxa-6,9,15-triazaheptan-17-yl) carbamate” the conjugation yield was 22.1%. “N-(3R,4R,7S,22S)-7,22-dibenzyl-3-((S)-1-((3R,4S,5S)-4-((S)-pyrrolidin-2-yl)-4-methyl-5,8,18,21,24,27-hexaoxo-2,12,15-trioxo-6,9,17,20,23,26-hexaazacyclooctacosan-28-yl))-6-(2,5-dioxo-2,5-dihydro-1H-pyrrol-1-yl)hexanamide” gave a conjugation yield of 79.1%. Substance “(9H-fluoren-9-yl) methyl (2-((2R,3R)-3-(S)-1-(3R,4S,4S,5S)-4-(S)-2-((S)-2-(dimethylamino)-3-methylbutanamido)-3-methoxymethylbutenyl-methyl-methyl-(methyl) amino)-2-oxoethyl) carbamate” has a conjugation yield of 55.3%. Substance “(9H-fluoren-9-yl) methyl ((3R,4R,7S)-7-benzyl-3-((S)-1-((3R,4S,5S)-4-((S)-2-((S)-2-(dimethylamino)-3-methylbutanamido)-N,3-dimethylbutanamido)-3-methoxy-5-methylheptanoyl) pyrrolidin-2-yl)-4-methyl-5,8,18-trioxo-2,15-dioxo-6,9,17-triazanonadecyl) carbamate” has a conjugation yield of 37.9%.

Same assay, conditions: late stage modification step
“(S)-N-((3R,4S,5S)-1-((S)-2-(((1R,2R)-3-((S)-1-((5-aminopentyl) amino)-1-oxo-3-phenylpropan-2-yl) amino)-1-methoxy-2-methyl-3-oxopropyl) pyrrolidin-1-yl)-3-methoxy-5-methyl-1-oxoheptan-4-yl)-2-((S)-2-(dimethylamino)-3-methylbutanamido)-N,3-dimethylbutanamide” showed a step yield of 71.9%. In the case of “((S)-N-((3R,4S,55)-1-((S)-2-(((1R,2R)-3-((S)-1-((4-(aminomethyl)cyclohexyl) methyl) amino)-1-oxo-3-phenylpropan-2-yl) amino)-1-methoxy-2-methyl-3-oxopropyl) pyrrolidin-1-yl)-3-methoxy-5-methyl-1-oxoheptan-4-yl)-2-((S)-2-(dimethylamino)-3-methylbutanamido)-N,3-dimethylbutanamide”, the step yield is reported as 72.3%. In the case of “(9H-fluoren-9-yl) methyl ((3R,4R,7S)-7-benzyl-3-((S)-1-((3R,4S,5S)-4-((S)-2-((S)-2-(dimethylamino)-3-methylbutanamido)-N,3-dimethylbutanamido)-3-methoxy-5-methylheptanoyl) pyrrolidin-2-yl)-4-methyl-5,8,18-trioxo-2,12,15-trioxo-6,9,17-triazacyclononadecyl) carbamate”, the step yield is reported as 58.0%. Work on “tert-butyl ((3R,4R,7S)-7-benzyl-3-((S)-1-((3R,4S,5S)-4-((S)-2-[(S)-2-(dimethylamino)-3-methylbutanamido]-N,3-dimethylbutanamido)-3-methoxy-5-methylheptanoyl) pyrrolidin-2-yl)-4-methyl-5,8-dioxo-2,12-dioxo-6,9-diazatetradecan-14-yl) carbamate” yielded a step yield of 98%. “(S)-N-((3R,4S,5S)-1-((S)-2-((3R,4R,7S)-19-amino-7-benzyl-4-methyl-5,8,18-trioxo-2,15-dioxa-6,9,17-triazanonadecyl-3-yl) pyrrolidin-1-yl)-3-methoxy-5-methyl-1-oxoheptan-4-yl)-2-((S)-2-(dimethylamino)-3-methylbutanamido)-N,3-dimethylbutanamide” gave a step yield of 67.8%.
